PubChem BioAssay AID504932 (Broad Institute, 2011)
The other results are listed elsewhere or left out. Potency and affinity values are given separately. Entries without a call are filed as inconclusive in the source.

Experiment: PubChem AID 504932
Settings: cell-based PrP 5' UTR reporter, plate reader; at 5 µM (top of the series)

Compound | activity change, negative = inhibition
Cc1cccc(C(=O)O/N=C(\N)c2ccccn2)c1 | -80.6%
COC(=O)c1[nH]c2c(c1C)C(=O)CC(c1cccc(OC)c1)C2 (configuration not stated) | -35.5%
